PubChem BioAssay AID1259254, NCATS, 2017
Here is one part, drawn at random, of about 59,000 reagents tested. Over the whole deposit, about 1,550 (2.6%) were called active. 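G2 share is only a proxy for re-replication; each gene was hit by three separate siRNAs, and active genes were retested.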 Raw values are not corrected between plates. A number with no mark means an inactive call. The numbers tell different reagents against one gene apart. The record does not give: the amount of reagent.

Assay: 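Finding genes that stop cells copying their DNA twice in one cycle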 (primary screen)
Cell system: human HCT116 colorectal cancer cells
Reagent: single siRNA against human genes
Duration: 3 days
Measured: 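Nuclei stained with Hoechst and imaged; cell-cycle phase assigned by DNA content; G2 share scaled per plate, non-targeting siRNA 0%, GMNN siRNA 100%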
Reading the numbers: G2 robust z-score and G2 cells, % of GMNN control: higher = more G2 cells, more excess DNA replication; raw share of cells in G2: higher = larger share of cells with G2 DNA content
Call rule: 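Active siRNAs have a G2 robust z of 5 or more median absolute deviations over the median, which in these data means about 38% or higher of GMNN control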

target gene | reagent | G2 robust z-score | G2 cells, % of GMNN control | raw share of cells in G2 (%)
MED14 | 1 | 0.751 | 8.25 | 7.66
MED14 | 2 | 0.836 | 8.85 | 8.37
MED14 | 3 | 0.357 | 5.48 | 7.03
PUS10 | 1 | 0.179 | 4.23 | 5.24
PUS10 | 2 | -0.131 | 2.05 | 3.55
PUS10 | 3 | -0.65 | -1.6 | 2.51
CDH20 | 1 | 0.426 | 5.97 | 8.87
CDH20 | 2 | -0.202 | 1.54 | 4.7
CDH20 | 3 | -0.681 | -1.82 | 3.39
RASA4 | 1 | 0.319 | 5.21 | 7.96
RASA4 | 2 | 1.03 | 10.2 | 7.15
RASA4 | 3 | 2.37 | 19.7 | 14.2
H2AB2 | 1 | 1.26 | 11.9 | 8.2
H2AB2 | 2 | -0.589 | -1.18 | 2.97
H2AB2 | 3 | -0.657 | -1.66 | 2.56
PANK3 | 1 | -0.577 | -1.09 | 5.25
PANK3 | 2 | 1.57 | 14 | 10.3
PANK3 | 3 | -0.483 | -0.434 | 3.54
SUB1 | 1 | -0.271 | 1.06 | 4.18
SUB1 | 2 | -0.739 | -2.23 | 4.73
SUB1 | 3 | -0.699 | -1.95 | 5.71
MEOX2 | 1 | 1.92 | 16.5 | 12
MEOX2 | 2 | 0.409 | 5.85 | 7.62
MEOX2 | 3 | -1.01 | -4.11 | 1.84
ATG2A | 1 | 4.09 | 31.7 | 17.4
ATG2A | 2 | 0.0106 | 3.04 | 5.39
ATG2A | 3 | -0.0829 | 2.38 | 4.07
MMRN1 | 1 | -0.888 | -3.28 | 3.7
MMRN1 | 2 | 1.87 | 16.1 | 10.8
MMRN1 | 3 | 1.83 | 15.9 | 9.11
DACH1 | 1 | -0.812 | -2.74 | 2.37
DACH1 | 2 | 0.153 | 4.04 | 6.74
DACH1 | 3 | 0.229 | 4.58 | 4.77
LINC02860 | 1 | -1.22 | -5.6 | 1.56
LINC02860 | 2 | -0.157 | 1.86 | 4.32
LINC02860 | 3 | -0.261 | 1.13 | 3.48
C1QTNF1 | 1 | 1.09 | 10.6 | 4.92
C1QTNF1 | 2 | -0.281 | 0.993 | 4.49
C1QTNF1 | 3 | -1.06 | -4.51 | 1.99
KBTBD7 | 1 | 0.645 | 7.51 | 6.61
KBTBD7 | 2 | -0.11 | 2.19 | 4.11
KBTBD7 | 3 | -0.13 | 2.05 | 3.03

An excerpt from above, limited to “G2 robust z-score”.
MED14 #3 = 0.357
PUS10 #1 = 0.179
PUS10 #2 = -0.131

Additional records follow:
target gene | reagent | G2 robust z-score | G2 cells, % of GMNN control | raw share of cells in G2 (%)
NLRP3 | 1 | -0.978 | -3.91 | 2.52
NLRP3 | 2 | -0.849 | -3 | 2.44
NLRP3 | 3 | 0.551 | 6.84 | 3.82
OR5D14 | 1 | 0.196 | 4.35 | 4.58
OR5D14 | 2 | 0.896 | 9.27 | 6.94
OR5D14 | 3 | 2.42 | 20 | 9.97
ACKR2 | 1 | -0.775 | -2.48 | 4.95
ACKR2 | 2 | -0.202 | 1.55 | 5.06
ACKR2 | 3 | -0.571 | -1.05 | 2.95
PUM1 | 1 | -0.222 | 1.41 | 5.73
PUM1 | 2 | -0.365 | 0.398 | 4.91
PUM1 | 3 | -0.558 | -0.96 | 2.87
TAAR2 | 1 | -0.32 | 0.715 | 6.1
TAAR2 | 2 | -1.01 | -4.11 | 3.08
TAAR2 | 3 | -1.09 | -4.68 | 1.83
LARGE2 | 1 | 1.5 | 13.5 | 9.52
LARGE2 | 2 | -0.893 | -3.31 | 2.34
LARGE2 | 3 | -1.02 | -4.18 | 0.597
ACTR10 | 1 | 2.89 | 23.3 | 12.8
ACTR10 | 2 | -0.437 | -0.104 | 4.29
ACTR10 | 3 | 0.524 | 6.66 | 9.35
SLC23A1 | 1 | 0.311 | 5.16 | 4.96
SLC23A1 | 2 | 0.658 | 7.6 | 7.83
SLC23A1 | 3 | 0.188 | 4.29 | 6.83
TBCB | 1 | -0.185 | 1.67 | 4.67
TBCB | 2 | -0.457 | -0.249 | 4.87
TBCB | 3 | 4.17 | 32.3 | 16.8
